Patent publication US20050119324A1, “Methods of treating atherosclerosis using NF-kB inhibitors” (Wyeth, priority 2003, published 2005)
For at least one compound, name, drawing or mass did not settle the structure.

How the values were obtained:
[1] = test system: apolipoprotein E-deficient C57/B1J (apo E KO) mice; assay: Aortic atherosclerosis quantification (Oil Red O, en face, aortic arch) in ovariectomized apoE KO mice on a high fat diet; format: in vivo; conditions: atherogenic diet 6 weeks, oral dosing in feed, EE 12 μg/kg/d, Examples 3 or 5 at 10 or 25 mg/kg/d, N=12
Procedure: All animal procedures were performed under strict compliance to IACUC guidelines. Four to six-week old female apolipoprotein E-deficient C57/B1J (apo E KO) mice were ovariectomized by the vendor (Taconic) and delivered to Wyeth within 2 days of surgery. The animals were housed in shoe-box cages and were allowed ad lib food and water. After 3 days acclimation, the animals were randomized by weight into 8 groups (N=12 mice per group). The animals were dosed in the feed with the indicated compounds during the entire course of the study. Dosing at the indicated levels was achieved by blending the compounds with a sucrose vehicle (30 g per 2 kg feed) prior to mixing into the feed. Ethinyl estradiol was used as a positive reference compound and was dosed at 12 μg/kg/d. […] The quantity of compound added to the feed was based on the food consumption rate and the body weights of the animals, which was determined every week. […]
Aortic Atherosclerosis Quantification-The mice were euthanized by anesthesia overdose and the vascular tree was perfused first with 2 ml phosphate buffered saline (pH 7.4), then with 2 ml formalin. For quantification of aortic lesions, aortas were carefully isolated and placed in formalin fixative for 48-72 hours before handling. […] The lesions were quantified en face after staining along the aortic arch using the Image-Pro Plus, Media Cybernetics software. […]

[2] = Lipoprotein determinations (total cholesterol, VLDL, HDL by FPLC) in ovariectomized apoE KO mice on a high fat diet; format: in vivo; conditions: atherogenic diet 6 weeks, oral dosing in feed
Procedure: All animal procedures were performed under strict compliance to IACUC guidelines. Four to six-week old female apolipoprotein E-deficient C57/B1J (apo E KO) mice were ovariectomized by the vendor (Taconic) and delivered to Wyeth within 2 days of surgery. The animals were housed in shoe-box cages and were allowed ad lib food and water. After 3 days acclimation, the animals were randomized by weight into 8 groups (N=12 mice per group). The animals were dosed in the feed with the indicated compounds during the entire course of the study. Dosing at the indicated levels was achieved by blending the compounds with a sucrose vehicle (30 g per 2 kg feed) prior to mixing into the feed. Ethinyl estradiol was used as a positive reference compound and was dosed at 12 μg/kg/d. Other groups of animals were dosed with the compounds of Example 3 or Example 5 at either 10 or 25 mg/kg/d. Control animals received vehicle (sucrose) alone in the feed. The quantity of compound added to the feed was based on the food consumption rate and the body weights of the animals, which was determined every week. The feeders employed prevented any spillage, so that the food consumption rate was accurate. The animals were fed a Casein-based rodent chow meal (Purina #5K96M) for the first week of the study. The animals were then challenged with a casein-based high fat (HF) diet for week 2 to week 7 of the study. […]
Lipoprotein Determinations—Total cholesterol and triglycerides were determined using enzymatic methods with commercially available kits from Boehringer Mannheim and Wako Biochemicals, respectively, and analyzed with the Boehringer Mannheim Hitachii 911 Analyzer. Separation and quantitation of plasma lipoproteins were performed using FPLC size fractionation. […] Areas of each curve representing VLDL, LDL and HDL were integrated using Waters Millennium™ software, and each lipoprotein fraction was quantified by multiplying the Total Cholesterol value by the relative percent area of each respective chromatogram peak.

C#C[C@]1(O)CC[C@H]2[C@@H]3CCc4cc(O)ccc4[C@H]3CC[C@@]21C [EE, 17α-ethinyl-17β-estradiol, reference compound]
extent of aortic fatty streak involvement [1]: significant decrease | VLDL-C (FIG. 2) [2]: significant reduction | serum HDL-C (FIG. 2) [2]: elevation | serum total cholesterol (FIG. 2) [2]: significant reduction
